Consider 39 compounds from PubChem BioAssay AID493014 (National Center for Advancing Translational Sciences (NCATS), 2011).

The other results are listed elsewhere or left out. Further columns of the screen follow, without active or inactive calls. Compounds called inactive in the main read-out are mostly missing here. Words in brackets tell the shape of the fitted curve; partial curves, single points and poor fits give uncertain potencies.

This assay in a line: qHTS Assay to Find Inhibitors of Chronic Active B-Cell Receptor Signaling. The settings on record: ABC-DLBCL IkBa-CBG/CBR reporter, luminescence ratio (green luciferase fused to IkBa over red control in TMD8 lymphoma cells), 4 h. The essentials:
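TMD8 human ABC-DLBCL cells with doxycycline-inducible IκBα–green luciferase fusion and unfused red luciferase, in 0.5% FBS medium; compounds up to 46 uM, 4 h at 37C. Green/red luminescence ratio, filter-overlap corrected, fitted to concentration-response curves.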

The mark [1] stands for this setting: measured here: CBR red luminescence, cell number.
[2] abbreviates: measured here: IkBa-CBG green luminescence.

Take `COc1cccc(/C=N/Nc2nc3ccccc3n3cnnc23)c1O`: the half-maximal activity concentration (AC50) under setting [1] was 1.46 µM [falling, full curve, poor fit] and the concentration at half-maximal activity (AC50) under setting [2] is 3.66 µM [rising, full curve, poor fit].
`CCC(=O)Nc1ccc(-c2nn3c(C)nnc3s2)cc1C`: the AC50 under setting [1] was 9.2 µM [falling, partial curve, poor fit].
On the same count and under the same terms, then `Cc1ccc(N=Cc2cc3c(cc2O)OC(N)=C(C#N)C3c2ccccc2)cc1` (stereo not drawn), with 5.17 µM [falling, full curve]; and `CCOC(=O)c1csc(NC(=O)c2ccc(C#N)cc2)n1`, with 0.501 µM [falling, full curve].
For `Cc1ccc(-c2nc(COC(=O)C3=NN(c4ccccc4)C(=O)CC3)cs2)cc1`, under setting [1], the AC50 is 1.3 µM [falling, full curve].
On the same count and under the same terms, to `COc1ccc(C(C(=O)NCC2CCCO2)N(Cc2ccccc2)C(=O)c2snc(C(N)=O)c2N)cc1OC` (stereo not drawn) belongs 12.6 µM [rising, partial curve, poor fit]; to `CCOC(=O)c1c(C)oc2c1c(C(c1cccnc1)N1CCN(C)CC1)c(O)c1ccccc12` (stereo not drawn), 29.1 µM [rising, single point].
Still for that read-out and setting: to `COc1ccc(CNC(=O)COC(=O)c2n[nH]c3ccccc23)cc1OC` belongs 9.2 µM [falling, partial curve, poor fit]; to `Cc1ccc(C)c(NC(=O)CCN2C(=O)c3ccccc3C2=O)c1`, 11.2 µM [rising, partial curve, poor fit].
Regarding `CCN1CCN(CCCNC(=O)CNC(=O)c2nn(-c3ccc(OC)cc3OC)c(=O)c3ccccc23)CC1`, the concentration at half-maximal activity (AC50) under setting [1] is 6.31 µM [rising, single point].
For the compound `O=C(c1ccc2[nH]c3c(c2c1)CCCC3)N1CCN(c2ccc(F)cc2)CC1`, the AC50 under setting [2] is 25.9 µM [rising, partial curve, poor fit].
For `Cc1oc2nc(SCC(=O)Nc3ccc(S(N)(=O)=O)cc3)nc(NC(=O)c3ccccc3)c2c1C`, the AC50 under setting [1] was 0.13 µM [falling, full curve].
As for `COC(=O)c1ccc(CO/N=C2\CCCc3nonc32)cc1`, the AC50 under setting [1] is 0.501 µM [rising, full curve, poor fit].
Same read-out and setting: to `CCSc1nsc(NC(=O)Nc2ccccc2OC)n1` belongs 0.398 µM [falling, full curve].
The same measure, in the same setting: to `Clc1ccccc1Cc1noc(CN2CCCCC2c2ccccn2)n1` (stereo not drawn) belongs 35.5 µM [rising, single point]; to `O=C(NCc1ccccn1)NC12CC3CC(CC(C3)C1)C2`, 6.51 µM [rising, partial curve, poor fit].
Still for that read-out and setting: to `CCOC(=O)c1ccc(NC(=O)CC2SC(=NC)N(C)C2=O)cc1` (stereo not drawn) belongs 13 µM [rising, partial curve, poor fit]; to `Cn1c2ccc(F)cc2c2nnc(SCC(=O)Nc3cccc(O)c3)nc21`, 17.8 µM [falling, single point]; to `O=C(Cc1ccccc1)c1ccccc1C(=O)N1CCCCC1`, 10 µM [rising, partial curve].
On to `Cc1ccc(NC(=O)C2CCCCC2)c(O)c1`, for which the AC50 under setting [1] is 12.6 µM [falling, single point].
On the same count and under the same terms, then `O=C(NC1CCc2ccccc21)c1cc(COc2cncc(Cl)c2)on1` (stereo not drawn), with 11.2 µM [falling, partial curve].
As for `COc1ccc(CN(CCC(c2ccccc2)c2ccc(OC(C)C)cc2)C(=O)CCl)cc1OC` (stereo not drawn), the AC50 is 20 µM [falling, partial curve, poor fit] under setting [1] and 12.6 µM [rising, partial curve, poor fit] under setting [2].
On to `CCOc1ccccc1N1C(=O)CC(Sc2n[nH]c(-c3ccccc3)n2)C1=O` (stereo not drawn), for which, under setting [1], the AC50 was 17.8 µM [falling, partial curve].
As to `Cc1cccc(/C(N)=N/OC(=O)c2ccc3c(c2)OCO3)c1`, under setting [1], the AC50 is 16.4 µM [falling, single point].
On the same count and under the same terms, to `CCN1/C(=C2\C(=O)N(C)C(=S)N2C)C=Cc2cc(C)ccc21` belongs 11.6 µM [rising, partial curve, poor fit]; to `Cc1ccccc1C(=O)Nc1ccccc1N1CCN(C(=O)c2ccccc2)CC1`, 17.8 µM [falling, single point].
Consider `C/C(=N\NC(=S)Nc1cc(S(=O)(=O)N2CCOCC2)ccc1Cl)c1ccccc1F`, for which the concentration at half-maximal activity (AC50) was 5.8 µM [rising, partial curve, poor fit] under setting [1] and 5.8 µM [falling, single point] under setting [2].
Consider `N#Cc1nc(-c2ccccc2F)oc1NCCN1CCOCC1`, for which the AC50 under setting [1] is 2.06 µM [rising, partial curve].
For the compound `CC/C(=N\O)c1c(O)c2c(n(-c3ccccc3)c1=O)CCCC2`, the AC50 under setting [1] was 13 µM [rising, partial curve, poor fit].
Still for that read-out and setting: to `COc1cccc(OC)c1C(=O)Nc1ccccc1N1CCCC1` belongs 29.1 µM [rising, partial curve, poor fit]; to `CCOc1ccccc1NC(=O)CSc1nc2[nH]ncc2c(=O)[nH]1`, 14.6 µM [falling, partial curve].
`Cc1ccc2nsnc2c1S(=O)(=O)N1CCOCC1`: the AC50 under setting [1] is 2.91 µM [falling, single point] and the AC50 under setting [2] was 4.61 µM [rising, partial curve, poor fit].
For `CCN(CC)CCN1C(=O)C(=O)/C(=C(/O)c2ccc(OC)c(OC)c2)C1c1ccccn1` (stereo not drawn), the half-maximal activity concentration (AC50) under setting [1] was 6.51 µM [rising, single point].
As for `Cc1cc(C)cc(NC(=O)Cn2cc3c(n2)CCCCC3)c1`, the half-maximal activity concentration (AC50) under setting [1] is 29.1 µM [rising, single point].
On the same count and under the same terms, then `CC1(C)CC(=O)C2=C(C1)OC(N)=C(C#N)C2c1cccs1` (stereo not drawn), with 17.8 µM [falling, single point]; and `Cc1ccc(S(=O)(=O)N2CCCC2C(=O)NCc2ccccc2Cl)cc1` (stereo not drawn), with 35.5 µM [falling, single point].
As to `Cc1cccc(NC(=O)c2ccc3nsnc3c2)c1C`, under setting [1], the AC50 is 14.1 µM [falling, partial curve].
Still for that read-out and setting: to `COc1ccccc1NC(=O)C(C)OC(=O)C1COc2ccccc2O1` (stereo not drawn) belongs 29.1 µM [falling, single point]; to `CCc1ccc2nc(N(CCCN(C)C)C(=O)c3ccc(S(=O)(=O)N(C)C4CCCCC4)cc3)sc2c1`, 35.5 µM [rising, single point].
